Results as given in PubChem BioAssay AID330 (DTP/NCI, 2004).
The list is a part of this screen's results and no random one: it is rich in T/C values a quarter to a half above the control, in often repeated tests (any T/C) and in doses without a T/C. Other doses and runs of a compound stand elsewhere. T/C is the treated group as % of the vehicle group. Some doses have a count of surviving animals in place of a T/C: the source files T/C as zero there, which appears to mark a toxic dose or a test without result, not a measured value. Some doses without a T/C left all or most animals alive at the check, yet need not have been tolerated: the source hardly ever lists a survival T/C far under the control, and the zero likely stands for such cases as well. Survivors were counted at the toxicity check, usually on the fifth day, unless a day is given; later deaths do not show. Schedules are NCI's codes, read here as Q, the interval in days (D) or hours (H), X, the number of doses. Some doses were run more than once; the results are listed from low to high. For survival time, the PubChem record calls one and a half times the control and up active, and a quarter to a half above the control has no call in these data; cut-offs in other NCI protocols can differ.

Test system: P388 leukemia ip, CD2F1 mice, survival T/C
Experiment: NCI In Vivo Anticancer Drug Screen. Data for tumor model P388 Leukemia (intraperitoneal) in CD2F1 (CDF1) mice
Conditions: T/C endpoint: median survival time, higher T/C = longer survival
[1] = dose: 200.0 mg/kg/injection, schedule: Q01DX009 (ip), vehicle: saline
[2] = dose: 400.0 mg/kg/injection, schedule: Q01DX009 (ip), vehicle: saline
[3] = dose: 600.0 mg/kg/injection, schedule: Q01DX009 (ip), vehicle: saline
[4] = dose: 100.0 mg/kg/injection, schedule: Q01DX005 (ip), vehicle: saline with Tween-80
[5] = dose: 200.0 mg/kg/injection, schedule: Q01DX005 (ip), vehicle: saline with Tween-80
[6] = dose: 12.5 mg/kg/injection, schedule: Q01DX009 (ip), vehicle: saline with Tween-80
[7] = dose: 50.0 mg/kg/injection, schedule: Q01DX009 (ip), vehicle: Klucel (hydroxypropylcellulose) (HPC)
[8] = dose: 200.0 mg/kg/injection, schedule: Q01DX009 (ip), vehicle: Klucel (hydroxypropylcellulose) (HPC)
[9] = dose: 50.0 mg/kg/injection, schedule: Q01DX009 (ip), vehicle: saline
[10] = dose: 100.0 mg/kg/injection, schedule: Q01DX009 (ip), vehicle: saline
[11] = dose: 240.0 mg/kg/injection, schedule: Q01DX005 (ip), vehicle: saline with Tween-80
[12] = dose: 360.0 micrograms/kg/injection, schedule: Q01DX009 (ip), vehicle: saline
[13] = dose: 600.0 micrograms/kg/injection, schedule: Q01DX009 (ip), vehicle: saline

CCC/C(=N\NC(N)=NC)c1ccc2c(c1)Cc1cc(/C(CCC)=N/NC(N)=NC)ccc1-2
survivor count (dose: 12.5 mg/kg/injection, schedule: Q04DX002 (ip), vehicle: saline with Tween-80): 0 of 6

CC(C)(C)CC(C)(C)c1ccc(O)c(O)c1
survivor count [1]: 2 of 6 and 6 of 6
survivor count [2]: 0 of 6
survivor count [3]: 0 of 6 and 6 of 6

COc1cc(/C=N/N2CC(=O)N(c3ccccc3)CC2=O)cc(OC)c1
survivor count (dose: 50.0 mg/kg/injection, schedule: Q01DX005 (ip), vehicle: saline with Tween-80): 6 of 6
survivor count [4]: 6 of 6
survivor count [5]: 6 of 6

O=C(O)C1C2C(=O)N(CO)C(=O)C2C(C(=O)O)C2C3C(=O)N(CO)C(=O)C3C12 (stereo unspecified)
T/C (dose: 400.0 mg/kg/injection, schedule: Q01DX009 (ip), vehicle: water): 129 and 131 % of control

N#C/C(=C/N)C(N)=O
survivor count (dose: 400.0 mg/kg/injection, schedule: Q01DX009 (ip), vehicle: saline with Tween-80): 5 of 6

Oc1c(CN2CCCC2)cc(Nc2cc(/C=C/c3ccc(Cl)cc3)nc(/C=C\c3ccc(Cl)cc3)n2)cc1CN1CCCC1
survivor count (dose: 20.0 mg/kg/injection, schedule: Q01DX009 (ip), vehicle: saline with Tween-80): 6 of 6

COC(=O)[C@H](NC(=O)c1ccccc1)[C@@H](O)/C=C/c1ccccc1
survivor count [4]: 6 of 6

CCS(=O)(=O)OCCF
survivor count (dose: 6.25 mg/kg/injection, schedule: Q01DX009 (ip), vehicle: saline with Tween-80): 0 of 6
survivor count [6]: 0 of 6 and 6 of 6
survivor count (dose: 25.0 mg/kg/injection, schedule: Q01DX009 (ip), vehicle: saline with Tween-80): 0 of 6
survivor count (dose: 50.0 mg/kg/injection, schedule: Q01DX009 (ip), vehicle: saline with Tween-80): 0 of 6

CCOc1cccc(/C=C2/C(=O)N(Cc3ccco3)SC2=S)c1O
survivor count (dose: 6.25 mg/kg/injection, schedule: Q01DX009 (ip), vehicle: Klucel (hydroxypropylcellulose) (HPC)): 6 of 6
survivor count [7]: 6 of 6
survivor count (dose: 100.0 mg/kg/injection, schedule: Q01DX009 (ip), vehicle: Klucel (hydroxypropylcellulose) (HPC)): 6 of 6
survivor count [8]: 3 of 6

O=C(NCC(CC(NC(=O)c1ccccc1)C(=O)O)NC(=O)c1ccccc1)c1ccccc1 (stereo unspecified)
survivor count [7]: 6 of 6

CCN(CC)P(=O)(N1CC1)N1CC1
T/C (dose: 6.25 mg/kg/injection, schedule: Q04DX003 (ip), vehicle: saline): 145 % of control

O=c1[nH]c(=O)c2sc3ncccc3c2[nH]1
survivor count [9]: 0 of 6
survivor count [10]: 0 of 6
survivor count [1]: 0 of 6

COc1c2c(cc3c1-c1ccc(OC)c(=O)cc1C(NC(C)=O)CC3)OCO2 (stereo unspecified)
survivor count (dose: 1.88 mg/kg/injection, schedule: Q01DX009 (ip), vehicle: distilled water + Tween-80): 6 of 6
survivor count (dose: 3.75 mg/kg/injection, schedule: Q01DX009 (ip), vehicle: distilled water + Tween-80): 2 of 6
survivor count (dose: 7.5 mg/kg/injection, schedule: Q01DX009 (ip), vehicle: distilled water + Tween-80): 0 of 6
survivor count (dose: 15.0 mg/kg/injection, schedule: Q01DX009 (ip), vehicle: distilled water + Tween-80): 0 of 6 and 6 of 6
survivor count (dose: 30.0 mg/kg/injection, schedule: Q01DX009 (ip), vehicle: distilled water + Tween-80): 1 of 6
survivor count (dose: 60.0 mg/kg/injection, schedule: Q01DX009 (ip), vehicle: distilled water + Tween-80): 0 of 6

CCCC(=O)NC1=C(N2CC2)C(=O)C(NC(=O)CCC)=C(N2CC2)C1=O
T/C (dose: 0.29 mg/kg/injection, schedule: Q01DX009 (ip), vehicle: saline with Tween-80): 128 % of control
T/C (dose: 0.3 mg/kg/injection, schedule: Q01DX009 (ip), vehicle: saline with Tween-80): 125 % of control
T/C (dose: 0.66 mg/kg/injection, schedule: Q01DX009 (ip), vehicle: saline with Tween-80): 129 % of control
T/C (dose: 0.78 mg/kg/injection, schedule: Q01DX009 (ip), vehicle: saline with Tween-80): 136 % of control
T/C (dose: 1.25 mg/kg/injection, schedule: Q04DX003 (ip), vehicle: saline with Tween-80): 127 % of control
T/C (dose: 10.0 mg/kg/injection, schedule: Q04DX003 (ip), vehicle: saline with Tween-80): 145 % of control
survivor count [6]: 6 of 6

CCN(CC)Cc1c(C)nc2cc(N(C)C)ccc2c1Cl
survivor count (dose: 120.0 mg/kg/injection, schedule: Q01DX005 (ip), vehicle: saline with Tween-80): 1 of 6
survivor count [11]: 0 of 5

CCOc1ccc(C[Se][Se]Cc2ccc(OCC)cc2)cc1
survivor count [8]: 0 of 6

CN1CCC2(CC1)OCCCO2
survivor count [5]: 4 of 6
survivor count (dose: 400.0 mg/kg/injection, schedule: Q01DX005 (ip), vehicle: saline with Tween-80): 0 of 6
survivor count (dose: 500.0 mg/kg/injection, schedule: Q01DX001 (ip), vehicle: saline with Tween-80): 0 of 6
survivor count (dose: 1000.0 mg/kg/injection, schedule: Q01DX001 (ip), vehicle: saline with Tween-80): 0 of 6
survivor count (dose: 2000.0 mg/kg/injection, schedule: Q01DX001 (ip), vehicle: saline with Tween-80): 0 of 6

S=C(NNc1nnc(-c2ccccc2)c(-c2ccccc2)n1)NC1CCCCC1
survivor count [5]: 6 of 6

CC(=O)OC1(C)CC(C)C(=O)C(C(O)CC2CC(=O)NC(=O)C2)C1 (stereo unspecified)
T/C (dose: 130.0 micrograms/kg/injection, schedule: Q01DX009 (ip), vehicle: saline): 137 % of control
T/C [12]: 149 % of control
survivor count [12]: 8 of 8
T/C [13]: 146 % of control
survivor count [13]: 7 of 7
survivor count (dose: 1000.0 micrograms/kg/injection, schedule: Q01DX009 (ip), vehicle: saline): 7 of 8 and 8 of 8
T/C (dose: 1200.0 micrograms/kg/injection, schedule: Q04DX003 (ip), vehicle: saline): 125 % of control
T/C (dose: 2160.0 micrograms/kg/injection, schedule: Q04DX003 (ip), vehicle: saline): 131 % of control
T/C (dose: 6000.0 micrograms/kg/injection, schedule: Q04DX003 (ip), vehicle: saline): 128 % of control

OCC1OC(n2cnc3c2NC=NC[C@H]3O)C(O)C1O (stereo partly specified)
survivor count (dose: 3.13 mg/kg/injection, schedule: Q01DX005 (ip), vehicle: saline): 5 of 5
survivor count (dose: 6.25 mg/kg/injection, schedule: Q01DX005 (ip), vehicle: saline): 5 of 5
survivor count (dose: 6.25 mg/kg/injection, schedule: Q01DX009 (ip), vehicle: saline): 5 of 5
survivor count (dose: 12.5 mg/kg/injection, schedule: Q01DX005 (ip), vehicle: saline): 5 of 5
survivor count (dose: 12.5 mg/kg/injection, schedule: Q01DX009 (ip), vehicle: saline): 5 of 5
survivor count (dose: 25.0 mg/kg/injection, schedule: Q01DX005 (ip), vehicle: saline): 5 of 5
survivor count (dose: 25.0 mg/kg/injection, schedule: Q01DX009 (ip), vehicle: saline): 5 of 5 and 6 of 6
survivor count (dose: 50.0 mg/kg/injection, schedule: Q01DX005 (ip), vehicle: saline): 5 of 5
survivor count [9]: 4 of 6
survivor count [10]: 2 of 6

CN(C)CCSc1c2ccccc2nc2ccccc12
survivor count (dose: 12.5 mg/kg/injection, schedule: Q01DX005 (ip), vehicle: Klucel (hydroxypropylcellulose) (HPC)): 6 of 6
survivor count (dose: 100.0 mg/kg/injection, schedule: Q01DX005 (ip), vehicle: Klucel (hydroxypropylcellulose) (HPC)): 1 of 6
survivor count (dose: 200.0 mg/kg/injection, schedule: Q01DX005 (ip), vehicle: Klucel (hydroxypropylcellulose) (HPC)): 0 of 6

COc1ccc(CN)cc1OC
survivor count [2]: 4 of 6
survivor count [3]: 0 of 6

COc1ccc(C(C#N)C(=O)C(=O)Nc2ccc(C)cc2C)cc1OC (stereo unspecified)
survivor count [11]: 0 of 6
